In the data set the target is IGFIIR, cell surface of MCF-7 (UniProt P11717). Description: flow cytometry. The settings on record: intact MCF-7 cells; Dulbecco's PBS with CaCl2 and MgCl2, 4.5 g/L glucose, 5 mM MgCl2, 0.1 mg/mL yeast tRNA, 1 mg/mL BSA; on ice 30 min; pH not stated; protein on the cell surface; folded or branched DNA. (In general: A flow cytometer gives signals particle by particle.)

Protein sequences, listed by entry. Tags and fused reporters are not part of them. Residues count along the entry.
UniProt P11717, 41-2491: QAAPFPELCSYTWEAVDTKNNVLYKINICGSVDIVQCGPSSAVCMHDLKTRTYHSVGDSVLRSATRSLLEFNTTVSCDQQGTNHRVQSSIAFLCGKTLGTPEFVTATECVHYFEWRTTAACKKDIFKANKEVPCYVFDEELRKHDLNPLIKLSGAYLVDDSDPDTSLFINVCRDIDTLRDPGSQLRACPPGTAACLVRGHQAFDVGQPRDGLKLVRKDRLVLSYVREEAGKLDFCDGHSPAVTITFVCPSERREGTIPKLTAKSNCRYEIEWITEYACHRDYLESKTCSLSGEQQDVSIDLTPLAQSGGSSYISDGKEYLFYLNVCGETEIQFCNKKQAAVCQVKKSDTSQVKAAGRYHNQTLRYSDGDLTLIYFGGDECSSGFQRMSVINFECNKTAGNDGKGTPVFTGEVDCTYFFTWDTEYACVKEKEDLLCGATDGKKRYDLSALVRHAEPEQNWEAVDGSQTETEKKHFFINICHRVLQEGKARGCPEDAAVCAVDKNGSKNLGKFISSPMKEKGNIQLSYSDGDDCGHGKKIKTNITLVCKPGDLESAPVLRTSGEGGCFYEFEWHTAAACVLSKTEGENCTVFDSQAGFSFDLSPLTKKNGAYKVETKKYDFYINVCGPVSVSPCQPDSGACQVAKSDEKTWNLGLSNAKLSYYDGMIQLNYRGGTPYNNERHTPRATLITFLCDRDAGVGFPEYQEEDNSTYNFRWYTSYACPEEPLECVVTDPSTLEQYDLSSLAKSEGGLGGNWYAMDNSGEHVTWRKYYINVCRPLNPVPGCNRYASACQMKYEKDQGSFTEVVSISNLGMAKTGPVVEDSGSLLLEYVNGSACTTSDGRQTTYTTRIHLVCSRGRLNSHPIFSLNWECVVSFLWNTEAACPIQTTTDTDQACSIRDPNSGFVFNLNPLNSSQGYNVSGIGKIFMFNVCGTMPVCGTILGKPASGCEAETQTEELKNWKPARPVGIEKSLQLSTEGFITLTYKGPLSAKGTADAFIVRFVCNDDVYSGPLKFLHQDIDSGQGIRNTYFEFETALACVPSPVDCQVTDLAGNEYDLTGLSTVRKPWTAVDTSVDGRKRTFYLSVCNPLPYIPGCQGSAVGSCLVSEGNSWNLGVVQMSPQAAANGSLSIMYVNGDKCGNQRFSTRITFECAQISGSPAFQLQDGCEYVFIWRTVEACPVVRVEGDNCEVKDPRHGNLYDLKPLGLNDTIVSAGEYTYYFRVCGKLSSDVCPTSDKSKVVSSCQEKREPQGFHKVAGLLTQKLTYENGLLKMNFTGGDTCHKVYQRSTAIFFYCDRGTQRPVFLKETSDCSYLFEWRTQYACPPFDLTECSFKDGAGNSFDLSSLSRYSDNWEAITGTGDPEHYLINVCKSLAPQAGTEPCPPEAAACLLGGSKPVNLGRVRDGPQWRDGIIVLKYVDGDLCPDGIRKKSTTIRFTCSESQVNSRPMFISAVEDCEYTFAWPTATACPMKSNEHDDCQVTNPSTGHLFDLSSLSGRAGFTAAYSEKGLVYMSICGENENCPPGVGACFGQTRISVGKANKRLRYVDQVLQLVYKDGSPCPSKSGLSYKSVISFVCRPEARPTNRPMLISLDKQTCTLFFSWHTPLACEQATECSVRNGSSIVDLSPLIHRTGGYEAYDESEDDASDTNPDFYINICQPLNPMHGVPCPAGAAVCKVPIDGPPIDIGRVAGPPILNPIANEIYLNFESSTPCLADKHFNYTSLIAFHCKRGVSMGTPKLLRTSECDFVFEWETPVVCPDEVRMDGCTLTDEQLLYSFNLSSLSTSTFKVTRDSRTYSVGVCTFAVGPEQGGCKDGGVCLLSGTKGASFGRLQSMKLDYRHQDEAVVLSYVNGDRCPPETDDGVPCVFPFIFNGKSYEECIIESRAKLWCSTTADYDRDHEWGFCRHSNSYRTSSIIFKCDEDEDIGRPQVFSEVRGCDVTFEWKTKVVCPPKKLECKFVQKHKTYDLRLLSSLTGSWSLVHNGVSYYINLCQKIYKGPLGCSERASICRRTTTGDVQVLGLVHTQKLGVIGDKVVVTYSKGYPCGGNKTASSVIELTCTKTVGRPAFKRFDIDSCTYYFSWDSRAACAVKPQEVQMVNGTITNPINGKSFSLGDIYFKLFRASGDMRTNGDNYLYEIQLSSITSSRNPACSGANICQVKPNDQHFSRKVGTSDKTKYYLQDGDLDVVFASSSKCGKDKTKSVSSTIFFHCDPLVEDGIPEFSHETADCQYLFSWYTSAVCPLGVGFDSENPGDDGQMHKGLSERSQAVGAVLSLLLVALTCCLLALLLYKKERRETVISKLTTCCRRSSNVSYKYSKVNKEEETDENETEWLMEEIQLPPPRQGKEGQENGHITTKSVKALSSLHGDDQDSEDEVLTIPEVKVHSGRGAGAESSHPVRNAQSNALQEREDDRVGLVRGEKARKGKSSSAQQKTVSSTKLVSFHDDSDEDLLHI

For at least one entry, the source does not settle the construct or the ends of the probe. Where cells or extracts were used, other partners may take part.

For “GGGCGCGTAGATGACGAGCAGTCCTAACATCGTTTAGGAC [IGFIIR aptamer]”, the binding result is reported as “binds”.

These data come from PMC12197088.
